Assay results published in article PMC6647471.
These are yes or no findings as the source states them, for the method shown. In cells and extracts the contact can be indirect. Some binding calls cover weakened binding; strength is not graded here.

Chains of the proteins cited; added tags and fusions are not shown. Lines headed by an entry give the natural chain unless they say otherwise; changes in a name come on top.
UniProt Q9UHD9: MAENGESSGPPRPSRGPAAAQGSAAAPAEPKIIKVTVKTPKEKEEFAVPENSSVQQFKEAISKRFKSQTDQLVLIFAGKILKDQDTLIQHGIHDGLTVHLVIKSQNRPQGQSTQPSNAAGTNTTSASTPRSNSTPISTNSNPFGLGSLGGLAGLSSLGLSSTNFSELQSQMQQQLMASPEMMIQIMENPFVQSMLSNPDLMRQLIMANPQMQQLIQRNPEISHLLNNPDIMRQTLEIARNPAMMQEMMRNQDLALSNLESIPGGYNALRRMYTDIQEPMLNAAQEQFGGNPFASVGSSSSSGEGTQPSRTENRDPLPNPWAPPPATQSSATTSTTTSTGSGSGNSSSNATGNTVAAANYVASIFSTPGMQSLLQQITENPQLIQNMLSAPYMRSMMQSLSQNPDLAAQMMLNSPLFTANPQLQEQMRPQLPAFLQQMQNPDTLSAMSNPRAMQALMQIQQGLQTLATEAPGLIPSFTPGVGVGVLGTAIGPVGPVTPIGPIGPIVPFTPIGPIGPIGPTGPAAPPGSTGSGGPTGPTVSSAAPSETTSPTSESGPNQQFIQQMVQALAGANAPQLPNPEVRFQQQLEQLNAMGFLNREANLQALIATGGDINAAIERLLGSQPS
UniProt Q921F2: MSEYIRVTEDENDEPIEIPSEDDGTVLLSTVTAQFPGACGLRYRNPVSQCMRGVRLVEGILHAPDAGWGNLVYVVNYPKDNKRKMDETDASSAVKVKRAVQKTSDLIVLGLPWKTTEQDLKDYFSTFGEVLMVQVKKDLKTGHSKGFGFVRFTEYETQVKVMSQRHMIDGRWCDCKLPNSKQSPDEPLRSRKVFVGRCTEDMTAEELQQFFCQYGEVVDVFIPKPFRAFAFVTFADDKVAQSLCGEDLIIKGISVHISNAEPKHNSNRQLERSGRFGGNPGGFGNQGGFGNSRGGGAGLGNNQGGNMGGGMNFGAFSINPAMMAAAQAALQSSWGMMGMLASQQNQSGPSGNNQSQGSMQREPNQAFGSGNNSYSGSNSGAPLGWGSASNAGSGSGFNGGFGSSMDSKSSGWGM

Target: human UBQLN2^P497H expressed from pCMV-hUBQLN2^P497H (human) (UniProt Q9UHD9)
Assay: co-IP; extracts of Neuro2A cells 48 h after transfection with control, pCMV-hUBQLN2^P497H (2), pCMV-ubiquitin (3), pCMV-hTDP-43^G348C (4) or combinations; immunoprecipitation of UBQLN2, TDP-43 detected; less TDP-43 bound when ubiquitin was co-expressed (2 + 3, 2 + 3 + 4)

binding: binds
Substance: mouse TDP-43 (endogenous in Neuro2A) (from UniProt Q921F2 1-414)
